These are yes or no findings as the source states them, for the method shown. In cells and extracts the contact can be indirect. These calls come from enrichment with a bait or labelling near it, and not all partners need be listed. Sequences can lack the tags named with a protein.
T1: Myc-tagged EhDUF2419 (Entamoeba histolytica) (UniProt C4LXA2)
T1 sequence: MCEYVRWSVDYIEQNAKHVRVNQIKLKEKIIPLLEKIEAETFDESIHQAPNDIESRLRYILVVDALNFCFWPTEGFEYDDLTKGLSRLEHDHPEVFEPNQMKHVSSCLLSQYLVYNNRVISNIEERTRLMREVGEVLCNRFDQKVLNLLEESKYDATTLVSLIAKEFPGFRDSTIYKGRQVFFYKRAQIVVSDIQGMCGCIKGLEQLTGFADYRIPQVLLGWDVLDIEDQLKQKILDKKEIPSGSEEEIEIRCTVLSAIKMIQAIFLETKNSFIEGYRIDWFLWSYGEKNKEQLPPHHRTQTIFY

Protein sequences, listed by entry. Tags and fused reporters are not part of them.
UniProt B1N2I7: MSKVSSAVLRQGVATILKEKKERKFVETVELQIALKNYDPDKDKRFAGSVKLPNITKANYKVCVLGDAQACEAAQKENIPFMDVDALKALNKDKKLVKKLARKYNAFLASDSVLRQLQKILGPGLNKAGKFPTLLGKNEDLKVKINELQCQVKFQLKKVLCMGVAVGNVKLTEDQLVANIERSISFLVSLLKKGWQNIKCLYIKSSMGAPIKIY
UniProt C4LTA0: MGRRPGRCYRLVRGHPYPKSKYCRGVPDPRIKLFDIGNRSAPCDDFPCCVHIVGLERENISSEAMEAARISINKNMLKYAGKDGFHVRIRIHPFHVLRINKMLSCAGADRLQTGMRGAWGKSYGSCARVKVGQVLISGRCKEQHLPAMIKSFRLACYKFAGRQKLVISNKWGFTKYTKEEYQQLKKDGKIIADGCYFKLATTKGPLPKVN

B1: WD domain containing protein (protein, UniProt C4LYM0 1-327)
chain: MAQRGATIKSIVLKGHEKPITKIELTREGDYFVSCSNDKTAMLWRVDPLVSMGAYSCAGAVSSCSISNNGLYLYLASRDGSLYCFELETGKQVYNKLPIPGCYAPIKSVELSPNNENILAVIGAFRTFASSVNLIDPEMKTKPISVLSQEMPQLTKAKWLSNSTFIVGDELGNLNMKDIRTQNNGLRFESHKGEITDIQSDANDILLGTTGKDGKAFVHDIRMPQEVISTFESGYPLQSIGFAPYTDYYAVGGGQDKAMITMTQRDMTMLMTTFVSAVDGQEMVRLPGHFGTVNTIVFSHDGKTIFTGADDGCIRISPLTNPVFASN
B2: eukaryotic translation initiation factor eIF-5 (protein, UniProt C4M5Q8 1-349)
chain: MSEKVRMLNVPRRKTDEFYRYKMPDLIHKIEGKGNGIKTVIVNCEDIANALDRPASYLCRYFGISLAAATNTDSGKYIINGKHEYKDLMNVLDKFIDKFVLCKKCENPETVMIVKNKTLTLHCKACGEATVVPKNEKLLKFIFVHPPKHEKEEEEDDEQTNEGVVETKENPFDKRTVKITLKLKNGEKEELDIVGKDFDLKKIIDEGHPGNRLNALIGGYKHCYNLSTKTLIREMFEIIFDANMFDNFAEQIDFFDLFLGDELNPQGMISFLEEFNVACAKYKLYNDPRLLNILLYLYNNGYVIKSAMKEWYDGGAVQMSPMKQKAKEFIEWLNDQEEEEEEEEEEDDE
B3: helicase [EHI_053600] (enzyme, UniProt C4M8P6 1-1192)
chain: MSRRKQQMAKALERQRLEKIQRLQQNQSTPSSQPKIEITKPKIEPKVAIQQKKEKKEQKIIEKKEIEKQQSDSQNIQRLKVLYDSLINEFGLTSELIKKGMVGATLENSDDITVDMVIEWLCLNIPSRLLPNSLGGTFNKVKSEKQEIKQEIKKEISKTQEIQEKQKEQEIEEEEDLDALLDRKAFKEAMDSTTKKKKKTPEEMRAEGLKRKAEIARLREEAEKRKKEEAQEEEEENELNFNFDGEIKEEENERWNIISAAEDTKWTGKFPSVIICDYCRRQKYDNPKYKDEKCKEGYLMSASVQLNDKSKTVLYARIPEENTAFLEKATAKNYIALRLLFEMKVQRNFINNFSPRYQEVFDNWTNNSPEEITKNSIILLVSQTPKGEKKKEKEIEEQSINKFTSETQAKDKFSNDYYFDEMNKEINSSHYQNMLENRKQLPIYSNKDHFINLLNNNQIVVVSGTTGSGKSTQLPQFVLENELLNKRGSQTKIYVTQPRRISAVGLSSRVIDERGSNKFVGHQIRFEKTGDEKLVYCTVGVMLRKVLGNPDLEGISHLFIDEVHERDINTDFLLLLIKKLITRNKTIKIIIMSATLAVELFEQYFGSASCLRIESKIHPIQTFYLDDIISFTNYSIDSTSEYYNYKYDDFQKKLIGDQLITVDMNKVNNKLNKTTSDMINQSTVNYELIMDLLHYLITNKPIGCILIFLPGIYEITTLQKEIISTPPFNNLNKFKIHILHSSVPLQQQKEAFSIAPNGLWKIVLSTNIAETSITIPDAKYLIDTGLVRIMSYDRSTKMQRLILTKISKANAQQRTGRVGRVSSGECYKMYSQKRESSFETYPQPEIKRLPLESLCLQILLFGEKNPVQFLADALDAPSQTQIEKSLLQLVTIKAAKRISHLDISGAVKEFEYSATPLGSALAALPVEVSIGKMLLLGCAFGIAQEATLLAACMAVQPLINGENGSNIKRRYCSDASDHIATMKIVEHYIESERKGNGTQFCKNNNINIILMKEILDTRKQFIELLKNYNYPIQSIQSSYKKELLLFILTYVFYPNIIIPQQIIGKTSIEYEYYTKKHQVFMGISSINSMPRIDFKDNVFIYTNMVKSNKIMVWECSLIKKVFIALIATTIAVNYKQKTITLDGWITINSTPLFIARLIQMRKELKEALDDVINQKTQLTKEFMSHLIETKLN
B4: pseudouridine synthase and archaeosine transglycosylase domain RNA-binding motif-containing protein (protein, UniProt C4M3W8 1-179)
chain: MFRKFTREDFGPLKQVKASQTKHIKQSISTQYPGLPIDELFPKNIPLFTANSKIDHSTAILSNNKVYFFQQKENFIPTLQLAMTYPEMMKQVQVDKGAIKHVLSGSNIMAPGLTSAGGKLPDDIVAGNYVLIMGEGVQSPLAIGLMKASAVDIKKQNSGVVIDLIQYAGDGIWTDCLEH
B5: RING-type E3 ubiquitin transferase (enzyme, UniProt C4MAN3 1-575)
chain: MSREDCVICTDRIIVYSIGECNHPNVCYSCCFRSRVLYNDFTCPLCRHKNPIVIYTKKPMLFKELTKSSPAFQFKEYGVQTNDRDVYKYLKYLLSNTCRYCTSEFSTIEKLNEHYKKIHHVQFCSVCMQYQKSFTCDKQVFTDEELHDHIKEIDPETGVKKHPYCDFCNIPFFDLESLYNHLNTQHESCFICDKSSDHPIYFRDYDELFKHMSTQHYVCEDPNCIAKKYIAFSTAEELTNHRIIYHMKKGEKVILESGVFFTDTPQRGTRYGRRRNNFIPSQFEYHREDTTKIKEEKEEEEHLDLTGSSFPRLGGNTTTNHSEVYQGQITTGRRNQSQKKKRKENKELFPSIGENNNKAKSDMKEAYKQQEKQEIAMKVDLQQKMKDILGGRYDKFVQENEMFKRGDETAAMLLDRFHKYFAGNPDEKEMLAEFINSWPNTKQRNILIQVDNQRNEELAKMKMRDEMFMSAQHWEEEQQKRIKSRVNTQIIPESERKKIIEEDKTKLKRKKKQEKELFPSLGEGRNLPISPKPSSKTWSQIARSTSLEAQKAKKERMDLEKARLDDSKFPKLGSK
B6: ubiquitin carboxyl-terminal hydrolase family protein (enzyme, UniProt C4M4Z7 1-806)
chain: MLSWKPSYPPCPDLTSSIETIPTAKSFITQLDEHLMNNNGIVLFEKIVNFIFSQPTLGYMAIPHYIRFNEKTPIPLINFVRYIIQYAPFDELPDCILPCIVSTALELIKRHEPKDTLDDQDNLLYELYKILIQAVVVDKKVISLINQTLHIIINQLISIHPLQFRELRNTVYQLISYLPNKDELMNQITNQLITQYHQQFIEALFAKPDNLRKYCGMENCGATCYINSVIQQLHNNESFKESILQSNCSGSCFILKTLFERMEQSKNWIVTRDVIENILGPSNKIDVSVQDDAYLFLTNLLDILNEDNKALINSCVNEFKVITKTTLKCTECQKVRERNEINTSISVDSVNNESLDQALSNLIKEEEMNDIDCLFCNKKTKQIKQISYELSESLIIGINRNKTIEGGRIYKFNKRFDFPLKMKWNDKEMILNGIVLHSGTTEMGHYTSIIKDNNGKWWKCNDKVVVEYNEKRILEDGYGTVSNSLSASILFYKTKEPNQIQNTNKEQVQNNNECNSMNIIVHDKQLYEWTEKQIIDSSSQWKSQECIDLLTLILYKGEYSFFKDIHSLITTIENKSISIIQELVSKQNELPTIITDCIVGTTTLKHALICIELFDKSSENNTWIATKLVELIPKYTTSHQHNLLSKLFVKCEEWFGLGEATPYEMTILHLLVHSSSLSEESYQLLLILCNYFQQWLIQNDIPFIQDVLSLITTTSQLNDIKKYKDSLKKLIKNTGTFLNLLPLLKSLIQRLITEKDTEKQTILKDLIVTTQCSIKSENSRTEVMDYYMTLLSKYSILQGCFETFIN
B7: RNA cytidine acetyltransferase (enzyme, UniProt C4M438 1-978)
chain: MSKKRVDPRLKTLIENGVKLGERTFIMIVGSKGVEQVMNIYYMYTKAANVAKDSVLWCYKKDLAFSSNQKKRLKHKMHNKGEAENAFELFLSTTEIKYVYYKESHKVLGNTFGMLVLQDFEAMTPNILCRTVETVRGGGLVVVLLTGMTSIKQLYNLNMDIHNRYRGEDTKEITSRFNERFVLSLSDNKNSIVVSDELDVVPVFEHTLRIDPVEKKVEIKEELENLRCAYEEVQYLNEIVKITTTADQAKCVVSLFDSLKEKTLNTTISITAGRGRGKSAALGLTIACSVALGYSNIFVTAPSPENVKTVFEFAVKGLEIFGMKEHLDFDVVQTTKSEYGKAVVRVNIHQNHRQTIQYILPNDTAQLSQAELLVIDEAAAIPLPLVKGLLGNYNVMLSTTTNGYEGTGRSLSLKLIKELREGISKYSNGRLFKECTLTEPIRYSSNDQVEKWLNKLLCLDASNTLMHITSTPSPDECELYYVNRDTLFSYNRDAEKFLQQLQGLFVTSHYKNTPNDMQLLADAPNHMIFILTGPVQNGEELPDILAAVQLSLEGGIARKRVSESWFRGKKETGDLIPWTLTQQFLDDEFAGLMGARVVRICTHPDVTNMGYGSKILQMLELYFTGCIVSLGEMEEEPKANNDQKEMETDEVEVRKELEPLLINPGNRKAEMLDYLGVAFGYTPQLSKFWTCSGYQPTYLRLTANDITGEHSCIMVKQLSKNMGNWEEQYTQDFKKRFSLLLGFEFKSMNAVDAFKLVQCKNKDSSVSLNFDQRAIKRLEYYSKNLIDYHIVLDLLPCIAQAVSNGLDIQLTITQQIIFVGMGLQFKSVDEIGSELKLASAQVMALFNKAIRKVVTFLEEKKEGTNAKQSMEEEVKATEEIKENDDISEEKEEEKQSEIDPSIIRQRKLKLKELGIDDPDMFKINNTTHEIKEIDTLKGRIPTTLSIQRKEKVDKLQVKYPQKPKSGKPKKHFKKMAKK
B8: rRNA adenine N(6)-methyltransferase (enzyme, UniProt C4LXN0 1-295)
chain: MAEPVGTNIFQFHKSEGQHILKNPMIAQQIVDAAELRRTDVVLEIGPGTGNLTMKMLPFCKKLIAIEIDPRMAAELKKRVSVTDYVKKLEIIQGDFLKVELPYFDVCVSNTPYSISSPLVFKLLNHRPQFRSAVLMFQREFAMRLVAKPGDPLYCRLSVNTQLLADVFHVMKVGRNNFKPPPKVESSVVRMIPVKPAPPLNLVEFDGFLRICFLRKHKTLSSLFRISSVLEVMEKNLRIIAKIRNIPIDENLDVKADVLQILEESGRAKSRAAQLTLDDFLELIYAFMKKNYHFC
B9: RNA 3′-terminal phosphate cyclase (enzyme, UniProt C4M8E8 1-357)
chain: MAIELKGAKAFRYRIVLSTLLGQTIRITSIREQDSNPGIRDYEVDFLKLVSEVTSGAQIDIGKDGTSILYKPGIVNGGNFQHTCNNGRSLGYYVVPLLLILPFGKGSTTITLNGITNGNDDLSIDLIRSTTIPLIQKFGIEEDMLNVKVIKRGAPPVGDGEVVINSSIIKQLNPINLTEQGLVRSIRGVAYSTKTSPQMSNRMGEASKGILSQYLQDVYITTDHWKGKEAGTSPGYGVILTASTTNGNIISTELFGEAGNVPEDIGQKVACGLLREIETGGCIDSMHQPWLFILMTLCSEDVSKLRCGDLTAQAVECLRTIKALTGVTFQAQWDEKTKTSLLSCIGIGFCNLSRKIH

biological target: T1, Myc-tagged EhDUF2419 (Entamoeba histolytica); assay: affinity purification with mass spectrometry; anti-c-Myc agarose beads with whole-cell lysate (1 to 2 mg/mL) of MycEhDUF2419-overexpressing trophozoites (24 ug/mL G418), 2 h at 4 °C, six low-stringency washes (0.1% Tween 20, 0.1% NP-40); LC-MS/MS after in-gel trypsin digestion; three replicates compared with empty vector trophozoites (fold change > 2, p < 0.05)

Molecule	binding
60S ribosomal protein L10a-2 (from UniProt B1N2I7 1-214)	binds
60S ribosomal protein L10 (from UniProt C4LTA0 1-210)	binds
B1	binds
B2	binds
B3	binds
B4	binds
B5	binds
B6	binds
B7	binds
B8	binds
B9	binds

From PMC11592518
